In patent publication US20220119529A1:

B1: #27-21 (VH2-2-VL2-1) (antibody, V domains shown)
VH: QVQLVQSGAEVVKPGASVKVSCKASGYTFTNYWMHWVKQAPGQGLEWIGMIHPNSGAFNYNERFKTRVTITVDKSTSTAYMELSSLRSEDTAVYYCARSTALATGYWGQGTLLTVSS
VL: DIQLTQSPSFLSASVGDRVTITCSASSSVSYMYWYQQKPGKSPKLLIYDTSNLASGVPSRFSGSGSGTEYTLTISSLQPEDFATYYCQQWSSYPLTFGQGTKLEIK
B2: #27-2121 (VH2-1-VL2-1) (antibody, IgG1, V domains shown)
VH: B1 VH with K38R, I48M, L113V
VL: B1 VL
B3: #27-22 (VH2-2-VL2-2) (antibody, IgG1, V domains shown)
VH: B1 VH
VL: B1 VL with I21M, A83V
B4: #23-5423 (VH5-4-VL2-3) (antibody, IgG1, V domains shown)
VH: QVQLVQSGAEVKKPGESLKISCKASGYNFNNYWMHWVRQRPGKGLEWIGMIHPNSGTFNYNERFKRKATLTVDKSISTAYLQWSSLKAEDTAMYYCAKSTALATDYWGQGTLVTVSS
VL: B1 VL with D1Q, Q3V, F10T, S42A, S59I, E69S, E80D
B5: #23-5424 (VH5-4-VL2-4) (antibody, IgG1, V domains shown)
VH: B4 VH
VL: B1 VL with D1Q, Q3V, F10T, I21M, S42A, S59I, E69S, L77M, E80D, A83V

Target: Cynomolgus B7H3 (plate-coated protein, ELISA) (cynomolgus monkey)
Test: ELISA, antigen coated on plate

binding, binds:
B1, B2, B3, B4, B5

Positions count from the first letter of the chain named. No constants are given. Whether binding was seen depends on the method and setting. Binding can be weak; no strength is given.
